Measurements published in paper doi:10.1101/2023.08.07.552262.
No constants are given. Whether binding was seen depends on the method and setting. In cells and extracts the contact can be indirect. Some results given as binding are weak or reduced against the parent protein; the word gives no strength.

By UniProt entry, the sequences of proteins in these tests, tags left out.
UniProt P39687: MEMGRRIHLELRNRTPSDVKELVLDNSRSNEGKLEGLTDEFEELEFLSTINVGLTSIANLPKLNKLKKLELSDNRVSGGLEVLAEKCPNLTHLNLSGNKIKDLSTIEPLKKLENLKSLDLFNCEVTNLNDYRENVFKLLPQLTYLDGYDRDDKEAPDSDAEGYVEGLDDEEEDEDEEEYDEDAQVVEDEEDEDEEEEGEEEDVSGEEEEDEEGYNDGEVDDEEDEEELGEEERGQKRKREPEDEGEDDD
UniProt Q15717: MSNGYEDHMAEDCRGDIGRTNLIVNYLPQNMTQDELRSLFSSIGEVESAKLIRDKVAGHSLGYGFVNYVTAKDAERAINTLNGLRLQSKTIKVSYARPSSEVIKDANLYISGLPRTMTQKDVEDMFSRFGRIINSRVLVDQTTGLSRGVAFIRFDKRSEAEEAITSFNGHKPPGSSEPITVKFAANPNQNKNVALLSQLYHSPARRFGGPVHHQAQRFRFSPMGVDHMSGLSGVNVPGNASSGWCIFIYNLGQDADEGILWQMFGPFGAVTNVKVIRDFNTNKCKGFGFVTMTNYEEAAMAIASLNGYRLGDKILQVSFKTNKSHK

Columns and labels:
[1] = target: T1, Transportin-2 (human (endogenous in HeLa)) (UniProt O14787); assay: co-IP
T1 sequence: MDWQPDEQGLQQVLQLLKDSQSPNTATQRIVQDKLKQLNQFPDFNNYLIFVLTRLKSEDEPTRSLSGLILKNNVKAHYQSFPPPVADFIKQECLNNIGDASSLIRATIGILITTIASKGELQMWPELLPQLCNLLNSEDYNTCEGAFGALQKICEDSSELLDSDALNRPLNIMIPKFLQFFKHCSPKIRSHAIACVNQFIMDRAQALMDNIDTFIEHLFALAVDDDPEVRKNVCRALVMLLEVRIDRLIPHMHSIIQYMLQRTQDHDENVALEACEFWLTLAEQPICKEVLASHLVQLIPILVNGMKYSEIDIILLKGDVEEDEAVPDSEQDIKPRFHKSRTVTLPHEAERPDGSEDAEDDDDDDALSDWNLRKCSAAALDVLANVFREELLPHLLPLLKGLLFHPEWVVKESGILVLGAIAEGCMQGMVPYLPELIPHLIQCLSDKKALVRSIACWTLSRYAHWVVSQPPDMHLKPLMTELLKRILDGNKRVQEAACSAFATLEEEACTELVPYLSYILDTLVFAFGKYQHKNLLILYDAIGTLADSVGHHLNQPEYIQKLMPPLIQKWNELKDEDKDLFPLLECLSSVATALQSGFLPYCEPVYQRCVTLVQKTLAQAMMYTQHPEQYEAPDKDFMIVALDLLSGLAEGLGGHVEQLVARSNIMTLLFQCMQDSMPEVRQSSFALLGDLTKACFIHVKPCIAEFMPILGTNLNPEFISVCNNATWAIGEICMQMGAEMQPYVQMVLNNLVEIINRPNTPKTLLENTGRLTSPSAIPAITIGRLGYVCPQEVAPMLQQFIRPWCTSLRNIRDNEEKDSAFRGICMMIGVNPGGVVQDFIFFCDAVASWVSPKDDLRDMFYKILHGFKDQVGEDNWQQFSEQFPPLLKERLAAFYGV

[2] = target: PHAPI (human (endogenous in HeLa)) (UniProt P39687); assay: co-IP

binding [1]: binds
binding [2]: binds
Substance: GFP-HuR^wt (from UniProt Q15717 1-326)
